Data source: PubChem BioAssay AID686937 (Drosophila RNAi Screening Center, 2013)
The deposit covers about 23,000 reagents; shown is an unselected part of those that have a named target and a result. 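Reduced-secretion tags in replicate 1 do not always agree with the z-scores; no criterion for assigning the tags was given.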 A plus sign joins genes that one reagent is predicted to hit. Further read-outs or replicates are left out here. Not given: the amount of reagent.

Test: 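Knock-downs that reduce output of a secreted reporter enzyme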 (primary screen)
System: Drosophila S2 cells expressing secreted horseradish peroxidase
Reagent: long dsRNA against Drosophila genes
Duration: about 5.5 days (5 days dsRNA, then 12 h reporter induction)
Treatment: reporter expression induced after 5 days of dsRNA, read 12 h later; inducer not stated
Read-out: 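Chemiluminescent measurement of peroxidase in the medium 12 h after reporter induction, following 5 days of dsRNA, given as a z-score per plate; higher means more secretion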
Direction: z-score: higher = more reporter secreted into medium

Gene	dsRNA	z-score, replicate 1
CG18545	DRSC15343	0.33
hdm	DRSC18013	0.4
dj-1beta	DRSC14599	0.07
ATPsynO	DRSC16780	-0.32
E(spl)m4-BFM	DRSC16992	0.08
Vm32E	DRSC03474	-0.3
CG1703	DRSC19764	0.31
Or49a	DRSC07493	0.31
Cpr60D	DRSC04492	0.57
Oat	DRSC11043	0.45
Tehao	DRSC03449	0.47
png	DRSC18582	0.22
CG11562	DRSC00316	0.29
lncRNA:CR43334	DRSC07894	-0.07
lncRNA:CR43334	DRSC07895	0.11
CG32440	DRSC11480	0.35
Ufd1	DRSC10607	-1.16
mkg-p	DRSC10777	-0.53
dpr17	DRSC12885	-0.34
dpr17	DRSC14957	0.05
dpr17	DRSC14958	0.09
CG30031 + deltaTry + CG30025 + 1 more	DRSC21262	0.29
ATP7	DRSC19819	0.38
Ir60a	DRSC04212	0.12
PTPMT1	DRSC14235	0.44
CG4362	DRSC15567	0.33
Rpn7	DRSC16841	-6.72
CG16800	DRSC02518	-0.56
Zasp52	DRSC06269	-2.11
Zasp52	DRSC07121	0.27
fit	DRSC15280	0.09
CG9497	DRSC03234	-0.04
CG18128	DRSC04304	0.33
Ptp61F	DRSC08683	0.59
CG11123	DRSC06040	0.29
kappaB-Ras + CG30503	DRSC06619	0.33
kappaB-Ras + CG30503	DRSC07636	0.17
CG31826	DRSC03357	0.16
CR17024	DRSC02562	0.21
CG31493	DRSC12583	0.19
CG9101	DRSC20152	0.66
CG34342	DRSC09756	0.72
CG34342	DRSC22515	0.53
CG42496 + Ppcdc	DRSC03886	-0.53
CG14237	DRSC14731	0.58
CG17734	DRSC15256	0.44
CG11807	DRSC06087	0.41
AttB	DRSC06734	0.17
PolD1	DRSC11138	0.05
dpa	DRSC07604	0.05
CG32773 (retired record)	DRSC17330	-0.33
Rrp5	DRSC15862	0
Gapdh1	DRSC07433	-0.03
CG8067	DRSC07065	0.19
CG2126	DRSC15418	0.17
Trmt6	DRSC03272	-0.01
CG13506	DRSC04150	0.37
Ube4B	DRSC03277	0.12
CG7378	DRSC20041	-0.26
CG3355	DRSC00598	0.31
CG6527	DRSC10659	0.46
mon2	DRSC03112	-0.69
yki	DRSC04437	-0.16
CG13131	DRSC02227	0.07
CG13458	DRSC10005	0.25
Impbeta11 + asRNA:CR43429	DRSC07525	0.35
CG13949	DRSC00367	-1.78
CG42560 + CG42559	DRSC21873	0.27
CG9902	DRSC20212	-0.23
CG3894	DRSC01762	0.22
CG3894	DRSC04012	0.52
CG3894	DRSC04429	0.17
CG12531	DRSC19466	0.4
lncRNA:CR42862	DRSC08348	0.14
Prp8	DRSC07293	-4.58
CG3345	DRSC00596	0.38
CG13739	DRSC06410	-2.82
CG3448	DRSC10368	0.07
Mayo	DRSC14300	0.37
CG4259	DRSC00645	0.15
CG1246	DRSC08275	0.56
CG1924	DRSC19823	0.32
qvr	DRSC05280	0.43
CG15601	DRSC19670	0.19
ND1 (retired record)	DRSC21273	0.26
Irk2	DRSC15569	0.29
CG6126	DRSC15971	0.25
Mgtor	DRSC05958	0.38
ZnT49B	DRSC07225	0.38
TBC1d7	DRSC15985	0.31
CG43133	DRSC19231	0.43
CG31347	DRSC21582	0.56
uri	DRSC04111	-0.83
CDK2AP1	DRSC19800	0.36
CG32066	DRSC10652	0.41
CG32066	DRSC10653	0.44
Tbca	DRSC15395	0.26
ND-51L1	DRSC06072	0.1
fd59A	DRSC04685	0.2
Ets96B	DRSC16127	-0.33
CG8353	DRSC03084	-0.1
CG32263	DRSC22431	0.41
Pask	DRSC04337	0.23
Rbpn-5	DRSC04440	0.54
